A short description of the experiment: qHTS Assay for Modulators of Lamin A Splicing. The settings on record: HeLa LMNA splicing GFP/RFP minigene ratio, 48 h. Summed up:
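S3 HeLa cells stably expressing lamin A-EGFP splicing minigene plus DsRed2, 600 cells/well, 48 h compound exposure at 37C. Laser-scanning cytometry; analysed as GFP (500-530 nm)/RFP (575-640 nm) total intensity ratio; 0.5% DMSO vehicle.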
On the technique in general: qHTS replaces the single test concentration by a dilution series.

Where [1] appears, read: measured here: RFP viability control channel.
[2] abbreviates: measured here: GFP splicing reporter channel.

The source of these data is PubChem BioAssay AID1487 (National Center for Advancing Translational Sciences (NCATS), 2009).

Several values for one entry are separate records, joined by “and”; a condition that tells them apart may be missing. Equal entries are not always repeated. The list shows a part of the results. Further columns of the screen follow, without active or inactive calls. Compounds called inactive in the main read-out are mostly missing here. Words in brackets tell the shape of the fitted curve; partial curves, single points and poor fits give uncertain potencies.

Take `COc1ccc(-c2nnc3sc(COc4ccccc4)nn23)cc1`: the AC50 – broadly, the midpoint of the concentration-response curve, whichever way the signal moves – under setting [1] is 35.5 µM [rising, single point].

As to `CCOC(=O)c1c(C)c(C)n(Cc2cccc(OC)c2OC)c1C`, the concentration at half-maximal activity (AC50) under setting [1] was 28.2 µM [rising, single point].

For `O=C(CSc1cn(CCNC(=O)c2cccs2)c2ccccc12)NC1CCCC1`, the AC50 under setting [1] is 35.5 µM [rising, single point].

On to `COc1ccc(C(=O)CC(Nc2ccc([N+](=O)[O-])cc2)c2ccc(Cl)cc2)cc1` (stereo unspecified), for which, under setting [1], the half-maximal activity concentration (AC50) was 12.6 µM [rising, single point].

Consider `O=C(COc1cccc(Cl)c1)Nc1nc(-c2ccc(S(=O)(=O)N3CCOCC3)cc2)cs1`, for which the AC50 is, setting by setting: under setting [2], 35.5 µM [rising, single point]; under setting [1], 22.4 µM [rising, partial curve, poor fit].

With `COc1ccc2ccccc2c1/C=N/NC(=S)Nc1cc(S(=O)(=O)N2CCOCC2)ccc1N1CCOCC1`, the concentration at half-maximal activity (AC50) under setting [1] is 14.1 µM [rising, partial curve, poor fit].

Take `COc1cccc(Nc2ncnc3nc[nH]c23)c1`: the AC50 under setting [1] was 5.01 µM [rising, full curve, poor fit].

As to `Cc1ccc(-c2cc(=O)c3cc(C)ccc3[nH]2)cc1`, the AC50 under setting [1] was 35.5 µM [rising, single point].

In the case of `CN(C)C(=O)c1ccc(-c2nc(-n3ccnc3)c3ccccc3n2)cc1`, the AC50 is, setting by setting: under setting [2], 12.6 µM [falling, partial curve]; under setting [1], 20 µM [falling, single point].

Take `CC/C(=N\NC(=O)c1c[nH]c2ccccc12)c1cccs1`: the AC50 is, setting by setting: under setting [2], 22.4 µM [rising, single point]; under setting [1], 17.8 µM [rising, single point].

As to `CS(=O)(=O)Nc1cccc(-c2nc(Nc3ccncc3)c3ccccc3n2)c1`, the AC50 by setting is: under setting [2], 12.6 µM [falling, partial curve]; under setting [1], 17.8 µM [falling, single point].

On to `Cc1ccc(OCC(=O)Nc2ccc(S(=O)(=O)N(Cc3ccccc3)c3ccccc3)cc2)cc1`, for which the AC50 under setting [2] was 22.4 µM [falling, partial curve, poor fit] and the AC50 under setting [1] is 20 µM [falling, partial curve, poor fit].

Regarding `c1ccc(-c2nnnc3ccccc23)cc1`, the AC50 under setting [1] is 11.2 µM [rising, partial curve, poor fit].

As for `Oc1ccc(N=Nc2n[nH]c(-c3ccccc3)n2)cc1`, the AC50 under setting [1] is 20 µM [rising, single point].

For `Cc1ccccc1C(=O)NCC(=O)NNC(=S)NC(=O)c1ccccc1C`, the AC50 is, setting by setting: under setting [2], 3.16 µM [falling, partial curve, poor fit]; under setting [1], 2 µM [falling, full curve, poor fit].

On to `Cc1cccc(C(=O)Nc2ccccc2C(=O)OCc2cc(=O)n3nc(C4CC4)sc3n2)c1`, for which the AC50 under setting [2] is 0.251 µM [rising, full curve, poor fit].

For the molecule `COC(=O)c1sccc1NC(=O)CSc1nnnn1-c1ccccc1F`, the AC50 is 10 µM [rising, partial curve] under setting [2] and 25.1 µM [rising, single point] under setting [1].

As to `COCc1cc(C)nc2sc3c(=O)n(-c4cccc5ccccc45)nnc3c12`, the AC50 under setting [2] is 10 µM [falling, partial curve, poor fit].

As to `CCOCCOC(=O)c1ccc(-n2cnc(C)n2)nc1`, the concentration at half-maximal activity (AC50) reads like this: under setting [2], 0.00447 µM [falling, full curve, poor fit]; under setting [1], 0.00501 µM [falling, full curve, poor fit].

Turning to `O=C(C1CCN(c2nc3ccccc3[nH]2)CC1)N1CCN(c2cccc(Cl)c2)CC1`, the half-maximal activity concentration (AC50) under setting [1] was 35.5 µM [rising, single point].

In the case of `Cc1cc(C(C)(C)C)c(O)c(C)c1CC1=NCCN1`, the AC50 runs as follows: under setting [2], 3.16 nM [falling, full curve, poor fit] and 5.01 nM [falling, full curve, poor fit]; under setting [1], 398 nM [falling, partial curve, poor fit] and 6.31 µM [falling, single point].

On to `CC(=O)NC1=NN(C(C)=O)C(C)(c2ccccc2)S1` (stereo unspecified), for which, under setting [1], the AC50 was 2.82 µM [rising, full curve, poor fit].

Consider `Cc1cc([N+](=O)[O-])nn1CCCC(=O)Nc1cc(Oc2ccc(F)cc2)cc([N+](=O)[O-])c1`, for which the AC50 under setting [1] was 1.41 µM [rising, partial curve].

`CN1CCN(c2ncc3nc(-c4ccc(Cl)cc4)c(=O)n(-c4ccccc4)c3n2)CC1`: the AC50 by setting is: under setting [2], 28.2 µM [falling, single point]; under setting [1], 14.1 µM [falling, partial curve].

With `O=C(CN1C(=O)CC(c2ccc(F)cc2)=Nc2ccccc21)NCc1ccccc1Cl`, the half-maximal activity concentration (AC50) by setting is: under setting [2], 35.5 µM [falling, partial curve]; under setting [1], 22.4 µM [falling, partial curve].

As for `Cc1noc2ncnc(N3CCN(c4cccc(Cl)c4)CC3)c12`, the AC50 under setting [1] is 5.01 µM [rising, partial curve, poor fit].

For the molecule `CCCn1c(-c2cccs2)nc2ccccc21`, the concentration at half-maximal activity (AC50) is 0.0447 µM [rising, full curve, poor fit] under setting [2] and 0.0355 µM [rising, full curve, poor fit] under setting [1].

For the molecule `COc1cccc(/C=N/Nc2ncc(C(F)(F)F)cc2Cl)c1O`, the half-maximal activity concentration (AC50) under setting [2] is 35.5 µM [rising, single point].

As to `O=S(=O)(c1cccc2nsnc12)N1CCCC1`, the AC50 under setting [2] is 2.82 µM [falling, full curve] and the AC50 under setting [1] was 3.55 µM [falling, full curve].

Take `COc1ccc(-c2csc3ncnc(Cl)c23)cc1`: the half-maximal activity concentration (AC50) under setting [2] is 12.6 µM [falling, partial curve, poor fit].

With `Cc1cc2c(ncn2C)c(NS(=O)(=O)c2ccc(F)cc2)c1C`, under setting [1], the AC50 is 0.562 µM [rising, partial curve, poor fit].

As for `CN(C)CCCNC(=O)C(=O)NCC1CCCO1` (stereo unspecified), the AC50 is 35.5 µM [rising, single point] under setting [2] and 31.6 µM [rising, single point] under setting [1].

For the molecule `COc1ccc(-c2nnn(CC(=O)c3c[nH]c4ccccc34)n2)cc1OC`, under setting [1], the AC50 is 31.6 µM [rising, single point].

In the case of `CCOc1ccccc1C(=O)N[C@H](C(=O)Nc1nc2c(s1)CCCC2)C(C)C`, the AC50 was 10 µM [rising, partial curve] under setting [2] and 11.2 µM [rising, partial curve] under setting [1].

Turning to `COc1ccc(CNC(=O)c2cc(-c3ccc(OC)c(OC)c3)on2)cc1`, under setting [1], the AC50 is 35.5 µM [rising, single point].

Consider `Cc1ccc2cc(CN(Cc3ccco3)C(=O)c3cccs3)c(=O)[nH]c2c1`, for which the AC50 under setting [1] was 2.82 µM [rising, single point].

In the case of `Cc1ccc(OCC(=O)Nc2ccccc2Sc2ccccc2)c([N+](=O)[O-])n1`, the AC50 was 14.1 µM [rising, single point] under setting [2] and 17.8 µM [rising, single point] under setting [1].

Take `Nc1[nH]n2c(=O)c3c(nc2c1N=Nc1ccccc1)CCCC3`: the AC50 runs as follows: under setting [2], 25.1 µM [falling, single point]; under setting [1], 35.5 µM [falling, single point].

Regarding `CCN(c1ncnc2c1cnn2-c1cccc(Cl)c1)C1CCCCC1`, under setting [1], the concentration at half-maximal activity (AC50) was 7.08 µM [rising, partial curve, poor fit].

`CCc1ccccc1N(C(C)=O)c1nc(CCl)cs1`: the AC50 under setting [1] was 0.00891 µM [falling, full curve].

Consider `O=S(=O)(Nc1ccc(-c2nnc(SCc3ccc(Cl)cc3)o2)cc1)c1ccccc1`, for which, under setting [1], the concentration at half-maximal activity (AC50) was 8.91 µM [rising, partial curve].

Turning to `O=C(Nc1ccc(F)cc1)c1nc[nH]c1C(=O)Nc1ccc([N+](=O)[O-])cc1`, under setting [1], the AC50 was 0.0631 µM [rising, full curve, poor fit].

`O=C(NNC(=S)Nc1ccccc1)NNC(=S)Nc1ccccc1`: the AC50 under setting [1] was 5.62 µM [rising, partial curve, poor fit].

Consider `Cn1c(NC(=O)C[n+]2cc(-c3ccc(F)cc3)n3c2CCC3)cc(=O)n(C)c1=O`, for which the concentration at half-maximal activity (AC50) was 10 µM [rising, single point] under setting [2] and 15.8 µM [rising, single point] under setting [1].

`CC(=O)C1=C(O)C(=O)N(c2cc(C(C)(C)C)on2)C1c1ccc(Br)cc1` (stereo unspecified): under setting [2], the concentration at half-maximal activity (AC50) was 35.5 µM [rising, single point].

As to `COc1ccc2cnn(CCOc3cc(C)ccc3C(C)C)c(=O)c2c1OC`, the AC50 was 11.2 µM [rising, partial curve, poor fit] under setting [2] and 22.4 µM [rising, partial curve] under setting [1].

As to `COc1ccc(OC)c(NC(=O)COC(=O)c2cc3c(s2)CCC3)c1`, under setting [2], the AC50 was 6.31 µM [rising, single point].

Turning to `COc1ccc(C(=O)Cc2ccc(OC)c(OC)c2)cc1`, the AC50 by setting is: under setting [2], 20 µM [rising, single point]; under setting [1], 20 µM [rising, single point].

On to `C=CCn1c(=S)[nH]c2sc3c(c2c1=O)CCC3`, for which the AC50 under setting [1] was 20 µM [rising, single point].

`CC(=O)c1cc(C#N)c(N(C)Cc2ccccc2)nc1C`: the AC50 under setting [2] was 0.794 µM [falling, full curve, poor fit].

Turning to `COc1ccc(-c2cccc(NS(=O)(=O)c3cc(C)ccc3OC)c2)nn1`, the AC50 was 0.0251 µM [falling, full curve, poor fit] under setting [2] and 0.0501 µM [falling, full curve] under setting [1].

As to `CC[n+]1c(/C=C/N(C)c2ccccc2)oc2ccc(Cl)cc21`, under setting [1], the concentration at half-maximal activity (AC50) was 11.2 µM [rising, partial curve, poor fit].

Consider `C[N+]1=C(/C=C/Nc2ccccc2Cl)C(C)(C)c2ccccc21`, for which the AC50 under setting [2] was 11.2 µM [rising, partial curve] and the AC50 under setting [1] is 14.1 µM [rising, partial curve].

As for `O=C(O)CCC(=O)Nc1cc(C(F)(F)F)cc(C(F)(F)F)c1`, the AC50 under setting [2] was 0.0501 µM [rising, full curve, poor fit].
